Data as given in PubChem BioAssay AID1259308 (NCATS, 2017)

Test: 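Genes whose loss raises luciferase production in HEK293 cells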 (primary screen)
System: human HEK293 embryonic kidney cells stably expressing firefly luciferase (HEK-CMV-Luc2-Hygro)
Reagents: single siRNA against human genes, 0.8 pmol siRNA per well
Duration: 72 h
Measured: 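Reporter luminescence and viable-cell signal on separate replicate plates, given as percent of non-targeting control and median/MAD z-scores, plus per-cell luciferase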
Reading the numbers: total luciferase, z-score: higher = more reporter protein produced
Rule for the call: 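An siRNA counts as active if its total luciferase robust z-score exceeds 3; genes with two or more such siRNAs out of three were retested with fresh siRNAs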
Meaning of the calls: active = raised luciferase; inactive = no rise
The whole screen tested about 59,000 reagents; below is a random part of them. About 1,510 of all reagents (2.6%) count as active. 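Calls use total luciferase alone and ignore viability, so some active siRNAs may act by altering cell number.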 The numbers tell different reagents against one gene apart. Not all columns of the deposit are shown.

ST6GALNAC4 (ST6 N-acetylgalactosaminide alpha-2,6-sialyltransferase 4) #1
- total luciferase, z-score: -0.164
- outcome: inactive

ST6GALNAC4 (ST6 N-acetylgalactosaminide alpha-2,6-sialyltransferase 4) #2
- total luciferase, z-score: 0.337
- outcome: inactive

ST6GALNAC4 (ST6 N-acetylgalactosaminide alpha-2,6-sialyltransferase 4) #3
- total luciferase, z-score: -0.856
- outcome: inactive

ZNF507 (zinc finger protein 507) #1
- total luciferase, z-score: 0.421
- outcome: inactive

ZNF507 (zinc finger protein 507) #2
- total luciferase, z-score: 0.824
- outcome: inactive

ZNF507 (zinc finger protein 507) #3
- total luciferase, z-score: -0.373
- outcome: inactive

WLS (Wnt ligand secretion mediator) #1
- total luciferase, z-score: 0.32
- outcome: inactive

WLS (Wnt ligand secretion mediator) #2
- total luciferase, z-score: -0.355
- outcome: inactive

WLS (Wnt ligand secretion mediator) #3
- total luciferase, z-score: -0.463
- outcome: inactive

Next part, starting with the last 2 of the part before.
WLS (Wnt ligand secretion mediator) #2
- total luciferase, z-score: -0.355
- outcome: inactive

WLS (Wnt ligand secretion mediator) #3
- total luciferase, z-score: -0.463
- outcome: inactive

LINC01561 (long independently transcribed non-coding RNA 1561) #1
- total luciferase, z-score: -0.497
- outcome: inactive

LINC01561 (long independently transcribed non-coding RNA 1561) #2
- total luciferase, z-score: -1.77
- outcome: inactive

LINC01561 (long independently transcribed non-coding RNA 1561) #3
- total luciferase, z-score: 0.744
- outcome: inactive

KLHL40 (kelch like family member 40) #1
- total luciferase, z-score: -0.7
- outcome: inactive

KLHL40 (kelch like family member 40) #2
- total luciferase, z-score: 3.12
- outcome: active

KLHL40 (kelch like family member 40) #3
- total luciferase, z-score: 1.14
- outcome: inactive

CCNYL3 (cyclin Y like 3 (pseudogene)) #1
- total luciferase, z-score: 1.56
- outcome: inactive

CCNYL3 (cyclin Y like 3 (pseudogene)) #2
- total luciferase, z-score: -0.453
- outcome: inactive

CCNYL3 (cyclin Y like 3 (pseudogene)) #3
- total luciferase, z-score: 0.14
- outcome: inactive

KIF3A (kinesin family member 3A) #1
- total luciferase, z-score: -0.178
- outcome: inactive

KIF3A (kinesin family member 3A) #2
- total luciferase, z-score: 0.1
- outcome: inactive

KIF3A (kinesin family member 3A) #3
- total luciferase, z-score: 0.278
- outcome: inactive
